The other results are listed elsewhere or left out.
B1: il10ra_site1_sap_19_mot_HHH_b2_03737_000000101_0001_1_20_H_._HHH_b2_06797_af2_0001_0000100002_0000001_0_0001 (protein)
chain: SSSSDEENKKSLKWAIEAVKRLLELGNHEEAELSARFLKRLIEDAGDEELREELEEVLEEGSSSS
B2: il10ra_site1_normal_mot_a6c796b944619e241e020fd597ddb6da_0001_af2_000000092_0001_15_31_H_._HHH_b2_00387_af2_0001_0000200008_0000001_0 (protein)
chain: SSSSSEEEQRVRALLFFAQDAAKTGNPEAAEITLEVAKEIAEENNDDELKRLIEEVEEEINSSSS
B3: il10ra_site1_normal_mot_HHH_b1_05056_000000217_0001_1_20_H_._HHH_b2_01983_0001_0000100001_0000001_1 (protein)
chain: SSSSSSDLEEEVEELLEEAKEIEDPEEAQRVLAEATHLALELGDEELLQLVWEVVKEHSSSSSSS
B4: il10ra_site1_sap_29_mot_HEEHE_1605_000000211_0001_40_56_H_._2012b86ae8029c2c8ab6d311e818aa61_0001_af2_0001_0000100002_0000001_0_0001_af2pred_0001 (protein)
chain: SSSSDREEELQRLIEELEKLLEEGDEEKLLKLLQELARAAQEANDPEATRVVLRVARELKSSSSS
B5: il10ra_site1_normal_mot_HHH_b2_05323_000000159_0001_1_18_H_._HHH_b2_06454_0001_0000100023_0000001_0 (protein)
chain: SSSSSDEEQELLELSLEAFRLLLRGNPEEARKVLEEAEELARELGNEQVLEIVEDQLQIASSSSS
B6: il10ra_site1_sap_26_mot_HHH_b1_06174_af2_000000107_0001_40_57_H_._527b127d34341fb70d6ba2ed43798e0e_0001_0001_0000400022_0000001_0_0001_af2pred_0001 (protein)
chain: SSSSSEELRELFELIRRLAHLANEDPEEARELLEEAKRLAEELNNDAAKAILEFIEKQLRSSSSS
B7: il10ra_site1_normal_mot_HHH_b1_05370_000000138_0001_1_16_H_._HHH_b1_01093_0001_0000200024_0000002_0 (protein)
chain: SSSSDEEYELAEEAIKEAIELFENGNPEEAERLLREVIEELEERGNEAVVWSLRHLLRVLRSSSS
B8: il10ra_site1_normal_mot_HHH_b1_05056_000000217_0001_1_20_H_._HHH_b2_06957_0001_0000400029_0000002_0 (protein)
chain: SSSSSSDELREEVEELLEEAKHIEDQRELAEVLQEASHLALRAGDAELLQEVWEVVKKLSSSSSS
B9: il10ra_site1_normal_mot_HHH_b1_00999_000000080_0001_41_55_H_._HHH_b1_01452_0001_0000100004_0000001_0 (protein)
chain: SSSSDEEEVREEVEELLEEAKHVPDPRELTRLLQEAVRLALELGDQELLRLVWKVVKELGSSSSS
B10: il10ra_site1_normal_mot_HHH_b2_00984_000000042_0001_1_20_H_._HHH_b2_06425_af2_0001_0000300011_0000001_0 (protein)
chain: SSSSDEELEEELRELIKEVKELLERGNYEEASRLAQEILRLIYRLGDEELLQELWEVIKRGSSSS

biological target: il10ra, Q13651; test: yeast display titration

Apparent Kd, inactive:
B1 no binding seen
B2 no binding seen
B3 no binding seen
B4 no binding seen
B5 no binding seen
B6 no binding seen
B7 no binding seen
B8 no binding seen
B9 no binding seen
B10 no binding seen

Quoted at random: 2 entries already listed
Apparent Kd, inactive:
B9 no binding seen
B5 no binding seen
